# Results reported in patent publication US9549949B2, “Antiviral agent” (NBC MESHTEC, INC., priority 2008, dated 2017).
# Some results were stated once for a whole list of compounds, not compound by compound. At least one compound was matched to its structure with a doubt left.
# Test system: influenza virus (influenza A/kitakyusyu/159/93 (H3N2))
# Type: cell-based
# Settings: concentration of 5%
row,SMILES,virus inactivated (from HA titer) [%]
1,"[I][Ge]([I])([I])[I] [Example 5, Germanium (IV) iodide]",≥ 99
2,"[I][In]([I])[I] [Example 21, Indium (III) iodide]",≥ 99
3,"[Cu][Br] [Example 23, Copper (I) bromide]",≥ 99
4,"[Cl][Cu] [Example 22, Copper (I) chloride]",≥ 99
5,"[I][Ge][I] [Example 6, Germanium (II) iodide]",≥ 99
6,"[Fe+2].[I-].[I-] [Example 16, Iron (II) iodide]",≥ 99
7,"[I][Sn]([I])([I])[I] [Example 8, Tin (IV) iodide]",≥ 99
8,"[Co+2].[I-].[I-] [Example 17, Cobalt (II) iodide]",≥ 99
9,"[I][Sn][I] [Example 7, Tin (II) iodide]",≥ 99
10,"[I-].[I-].[Zn+2] [Example 19, Zinc (II) iodide]",≥ 99
